Construct, isoform or probe ends are uncertain for at least one entry.
Molecular target: MtAra-1 DNA-binding domain (Zn(II)2Cys6) (Myceliophthora thermophila) (UniProt G2QNA9)
Assay: EMSA
Details: 10 ng probe, retardation from 10 nM protein, 25 °C, 30 min, buffer composition, recombinant protein, residues 9-68, protein details: N-terminal GST (pGEX-4T-1), probe letters rebuilt from the primers and the genome

## GCTCGAGATGCCGTCACTACACCGCCGTTGGTCGCCGTTGGTCGCCGTTAGTGGGCGAGGTGGACCGATGTTCCTGCCCGGTCGCTTGGCAGTCTAGCGCCCGGAGTTGTGTATGTACGGAGTACAGTACTGTACAGTACAGAGTTTTGATCTTTTCCCGCTGGGCAGCTGACGCACACCCTCTCTCCTGGAAGGAACTGGTCTGGGGGGCTGGCATCCTCTCGCTTCCCCACACTCCGCACTCGGGGTAAACAACATGCGGGGGACGCATTCATCGGTGGGCTGACCAAAACCCCCATGTAATTATCCGAGTTTCCTAGTCACATGCCCGAAGTAATTACAAACAGGAAGAGGCTGTAAAACCACACCACAGCGATTGCTTTCCCGAGTCTGGATGCAAACGGCAGCATATCGCAAAATCACAAAATACCCGCCTCCTCAATTAGCTGCAAGCAGTTCGTCTC (double strand) [Mtlat-1 promoter probe P2]
  binding result: binds

## GAGCCAAAAACTGCCTCCTTCGGTAGTGTGCCCTTGTGAGCTTGTTGCGAGTCCACAGCGGCCCCGCCAGGGCGCCAGAAGCGCGCCTATCAGGTGGCCGCGACCCGTCAGCTTGGCACCGCCGGGTGCAGCGCGGGATTCTTGACTCGATCGTTGTTCCATTACACTCCCCAGAGCTTTCCCCATTGATTGGCGGGATCCACCGTCCGAAAACCCTGGCCTGGGGCTTGAGAGCGGACCAAACAAAACAAAGGAGCCATCGTTCCATGGCAGCATCAAGCATGTGCTTGCCATGTAACGTCCACTCTCCGGGTTTGCAGCCCACGATGGGTCCGTTTTTGATCAATCTCGGCCCGTGTCGAGTCGACTCCGCATGGAGTCTGTCAGGGGGATGATC (double strand) [Mtlat-1 promoter probe P1]
  binding result: binds
